From patent US20160102316A1, “STRESS TOLERANT PLANTS” (CONSEJO SUPERIOR DE INVESTIGACIONES CIENTIFICAS(CSIC), priority 2013, published 2016)
Results are given in words; binding and its absence hold for the method and conditions named. Some results given as binding are weak or reduced against the parent protein; the word gives no strength.

Legend:
[1] = target: T1, full length PYL4 (Arabidopsis) (UniProt O80920); assay: in vivo; assay not described in the filing
T1 sequence (looked up): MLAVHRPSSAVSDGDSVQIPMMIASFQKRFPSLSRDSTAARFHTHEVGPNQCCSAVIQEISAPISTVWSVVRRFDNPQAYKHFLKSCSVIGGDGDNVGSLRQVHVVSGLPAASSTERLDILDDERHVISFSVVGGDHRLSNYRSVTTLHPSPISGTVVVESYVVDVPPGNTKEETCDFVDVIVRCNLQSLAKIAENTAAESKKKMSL

[2] = target: T2, full length PYL9 (Arabidopsis) (UniProt Q84MC7); assay: in vivo; assay not described in the filing
T2 sequence (looked up): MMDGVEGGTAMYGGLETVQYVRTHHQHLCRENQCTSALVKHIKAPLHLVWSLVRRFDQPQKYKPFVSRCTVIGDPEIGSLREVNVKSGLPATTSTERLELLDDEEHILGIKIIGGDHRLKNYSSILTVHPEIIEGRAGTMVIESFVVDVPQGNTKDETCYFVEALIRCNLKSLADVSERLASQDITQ

B1: DDA1:YFPC (other)
chain: MASILGDLPSFDPHNFSQHRPSDPSNPSKMVPTTYRPTHNRTLPPPDQVITTEVKNILIRSFYQRAEEKLRPKRPATDHLAAEHVNKHFRAASSSSSTQGL
notes: BiFC construct expressed transiently in N. benthamiana leaves; also called DDA1 fusion with the C-portion of YFP; not shown: C-portion of the yellow fluorescent protein (YFP)
binding [1]: binds
binding [2]: binds
